The subject of the assay is L1210 leukemia ip in BDF1 mice, survival T/C. As to the kind of experiment: NCI In Vivo Anticancer Drug Screen. Data for tumor model L1210 Leukemia (intraperitoneal) in B6D2F1 (BDF1) mice. The note with it: T/C endpoint: mean survival time, higher T/C = longer survival.
[1] abbreviates: dose: 300.0 mg/kg/injection, schedule: Q01DX001 (ip), vehicle: saline.
[2] abbreviates: dose: 200.0 mg/kg/injection, schedule: Q01DX001 (ip), vehicle: saline.
Where [3] appears, read: dose: 400.0 mg/kg/injection, schedule: Q01DX001 (ip), vehicle: saline.
Setting [4] is: dose: 200.0 mg/kg/injection, schedule: Q01DX009 (ip), vehicle: saline.
Where [5] appears, read: dose: 400.0 mg/kg/injection, schedule: Q01DX009 (ip), vehicle: saline.

The list does not hold the whole screen: it gathers tests that were run many times, whatever their T/C, doses with no T/C, and many T/C values between a quarter and a half above the control. Further doses and runs are listed elsewhere. T/C is the treated group as % of the vehicle group. Some entries give survivors of the animals treated and no T/C: the source files T/C as zero there, which appears to mark a toxic dose or a test without result, not a measured value. Some doses without a T/C left all or most animals alive at the check, yet need not have been tolerated: survival well below the control is almost never listed, so the zero probably covers shortened survival too. Counts of survivors are from the toxicity check (mostly the fifth day) where no day follows; animals may have died later. Schedules are NCI's codes, read here as Q, the interval in days (D) or hours (H), X, the number of doses. Some doses were run more than once; their values stand side by side, smallest first. Where survival is the endpoint, this PubChem deposit counts one and a half times the control or more as active, and values a quarter to a half above the control carry no call in these data; other NCI protocols may use other cut-offs. Marks such as (2×) say how often a value occurs here.

For `Cc1cc[n+](C)c2ccccc12`, the survivor count runs as follows: (dose: 75.0 mg/kg/injection, schedule: Q04DX003 (ip), vehicle: saline) 4 of 6; (dose: 150.0 mg/kg/injection, schedule: Q01DX001 (ip), vehicle: saline) 0 of 6; (dose: 150.0 mg/kg/injection, schedule: Q04DX003 (ip), vehicle: saline) 1 of 6; under setting [1], 0 of 6.

For `CCN(CC)CCCC(C)Nc1cc(N)c2ncc(-c3ccc(Cl)cc3)nc2n1` (stereo not drawn), under setting [1], the survivor count was 1 of 6.

As to `Nc1nc(N)c2cc(CNc3ccc(C(=O)NC(CC(=O)O)C(=O)O)c(Cl)c3)ccc2n1` (stereo not drawn), the T/C is 144 % of control (dose: 0.8 mg/kg/injection, schedule: Q01DX009 (ip), vehicle: saline with Tween-80); 137 % of control (dose: 0.8 mg/kg/injection, schedule: Q01DX009 (ip), vehicle: saline); 149 % of control (dose: 1.2 mg/kg/injection, schedule: Q01DX009 (ip), vehicle: saline with Tween-80); 148 % of control (dose: 1.2 mg/kg/injection, schedule: Q01DX009 (ip), vehicle: saline). Besides, the survivor count is, setting by setting: (dose: 4.0 mg/kg/injection, schedule: Q01DX009 (ip), vehicle: saline) 6 of 6; (dose: 6.0 mg/kg/injection, schedule: Q01DX009 (ip), vehicle: saline) 6 of 6; (dose: 9.0 mg/kg/injection, schedule: Q01DX009 (ip), vehicle: saline) 6 of 6; (dose: 13.0 mg/kg/injection, schedule: Q01DX009 (ip), vehicle: saline) 6 of 6; (dose: 20.0 mg/kg/injection, schedule: Q01DX009 (ip), vehicle: saline) 6 of 6; (dose: 30.0 mg/kg/injection, schedule: Q01DX009 (ip), vehicle: saline) 6 of 6.

For `CN1C2CCC1CC(NCCN1CC1)C2` (stereo not drawn), the survivor count is on record as 0 of 6 under setting [2] and 0 of 6 under setting [3].

Turning to `CCC1CCCC1=O` (stereo not drawn), the survivor count is given as 4 of 4 (dose: 100.0 mg/kg/injection, schedule: Q01DX001 (ip), vehicle: saline) and 4 of 4 under setting [3].

For `NC(=O)NNC(N)=O`, the survivor count is recorded as 5 of 6 under setting [4] and 3 of 6 (dose: 400.0 mg/kg/injection, schedule: Q04DX003 (ip), vehicle: saline).

Regarding `CCN(CC)CC(=O)NCC(CCN1CCCCC1)c1cccc2ccccc12` (stereo not drawn), the survivor count under setting [4] is reported as 0 of 6 and the survivor count under setting [5] is given as 0 of 6.

`NNC12CCC(c3ccccc31)c1ccccc12`: the survivor count (dose: 400.0 mg/kg/injection, schedule: Q04DX003 (ip), vehicle: saline sonified) is recorded as 1 of 6.

`Cc1cccc(OCCOC(=O)Nc2cccc(C(F)(F)F)c2)c1`: under setting [5], the T/C was 138 % of control.

`CCCCc1c(Cl)nc(Cl)nc1Cl`: the survivor count runs as follows: (dose: 100.0 mg/kg/injection, schedule: Q01DX009 (ip), vehicle: saline with Tween-80) 0 of 6 and 1 of 6; (dose: 200.0 mg/kg/injection, schedule: Q01DX009 (ip), vehicle: saline with Tween-80) 0 of 6; (dose: 400.0 mg/kg/injection, schedule: Q01DX009 (ip), vehicle: saline with Tween-80) 0 of 6.

As for `S=c1cc(S)c(=S)[nH][nH]1`, the survivor count (dose: 40.0 mg/kg/injection, schedule: Q01DX001 (ip), vehicle: other) was 0 of 4 and the survivor count (dose: 80.0 mg/kg/injection, schedule: Q01DX001 (ip), vehicle: other) is given as 0 of 4.

In the case of `Cc1ccc(C(SCC(N)C(=O)O)(c2ccccc2)c2ccc(C)cc2)cc1` (stereo not drawn), the T/C (dose: 2.4 mg/kg/injection, schedule: Q01DX009 (ip), vehicle: saline) is 132 % of control; the T/C (dose: 3.6 mg/kg/injection, schedule: Q01DX009 (ip), vehicle: saline) was 149 % of control; the T/C (dose: 6.5 mg/kg/injection, schedule: Q01DX009 (ip), vehicle: saline) was 146 % of control. Besides, the survivor count (dose: 50.0 mg/kg/injection, schedule: Q01DX009 (ip), vehicle: other) is 5 of 6; the survivor count (dose: 100.0 mg/kg/injection, schedule: Q01DX009 (ip), vehicle: other) is listed as 4 of 6; the survivor count (dose: 100.0 mg/kg/injection, schedule: Q01DX009 (ip), vehicle: saline) was 5 of 6 and 9 of 10.

Turning to `Cc1cccc(NC(=O)Nc2ccccc2F)n1`, the survivor count was 3 of 3 (dose: 100.0 mg/kg/injection, schedule: Q01DX009 (ip), vehicle: Klucel (hydroxypropylcellulose) (HPC)) and 6 of 6 (dose: 400.0 mg/kg/injection, schedule: Q01DX001 (ip), vehicle: Klucel (hydroxypropylcellulose) (HPC)).

Turning to `CC[CH2][Sn]([CH2]CC)[CH2]CC.CC[CH2][Sn]([CH2]CC)[CH2]CC`, the survivor count is 1 of 3 (dose: 50.0 mg/kg/injection, schedule: Q01DX009 (sc), vehicle: olive oil, sesame oil, peanut oil); 1 of 3 (dose: 100.0 mg/kg/injection, schedule: Q04DX002 (sc), vehicle: olive oil, sesame oil, peanut oil); 2 of 3 (dose: 200.0 mg/kg/injection, schedule: Q04DX002 (sc), vehicle: olive oil, sesame oil, peanut oil); 0 of 3 (dose: 400.0 mg/kg/injection, schedule: Q04DX002 (sc), vehicle: olive oil, sesame oil, peanut oil).

Regarding `Cc1ccc([N+](=O)[O-])cc1O`, the survivor count under setting [2] is recorded as 5 of 6 and the survivor count under setting [3] is listed as 0 of 6.

As to `O=C(OCS(=O)c1ccccc1)c1ccccc1` (stereo not drawn), the survivor count (dose: 400.0 mg/kg/injection, schedule: Q04DX003 (ip), vehicle: Klucel (hydroxypropylcellulose) (HPC)) is 0 of 6.

Consider `CN(C)c1cc2c3c(c1)CCCN3CCC2`, for which the survivor count (dose: 25.0 mg/kg/injection, schedule: Q01DX001 (ip), vehicle: saline) is given as 1 of 6.

With `CCCCCCC(C)NCC(C)O` (stereo not drawn), the survivor count reads like this: (dose: 150.0 mg/kg/injection, schedule: Q01DX001 (ip), vehicle: acid diluted with saline) 0 of 6; (dose: 300.0 mg/kg/injection, schedule: Q01DX001 (ip), vehicle: acid diluted with saline) 0 of 6.

Take `Cc1ccc2ccccc2c1`: the T/C (dose: 400.0 mg/kg/injection, schedule: Q04DX002 (ip), vehicle: Klucel (hydroxypropylcellulose) (HPC)) is 128 % of control.

For `CCOC(=O)c1cc(C(=O)O)[nH]c(=O)c1C#N`, the survivor count (dose: 200.0 mg/kg/injection, schedule: Q04DX003 (ip), vehicle: saline with Tween-80) was 6 of 6.

With `O=C(Nc1ccc(Br)cc1)c1cc(Br)cc(Br)c1O`, the T/C (dose: 6.25 mg/kg/injection, schedule: Q04DX002 (ip), vehicle: saline) is 125 % of control. Also, the survivor count (dose: 50.0 mg/kg/injection, schedule: Q04DX002 (ip), vehicle: saline) was 3 of 3 and the survivor count (dose: 100.0 mg/kg/injection, schedule: Q04DX002 (ip), vehicle: saline) is reported as 3 of 3.

Consider `CN(C)C(=O)Nc1ccc([N+](=O)[O-])cc1[N+](=O)[O-]`, for which the T/C was 98 (2×), 102, 104 % of control (dose: 100.0 mg/kg/injection, schedule: Q04DX002 (ip), vehicle: saline with Tween-80); 91, 92, 95, 109 % of control (dose: 200.0 mg/kg/injection, schedule: Q04DX002 (ip), vehicle: saline with Tween-80); 91, 97, 98, 137 % of control (dose: 400.0 mg/kg/injection, schedule: Q04DX002 (ip), vehicle: saline with Tween-80).

`N#CCC(=O)c1ccccc1`: the survivor count by setting is: (dose: 75.0 mg/kg/injection, schedule: Q04DX003 (ip), vehicle: gum acacia) 2 of 6; (dose: 100.0 mg/kg/injection, schedule: Q04DX003 (ip), vehicle: gum acacia) 1 of 6; (dose: 200.0 mg/kg/injection, schedule: Q04DX003 (ip), vehicle: gum acacia) 0 of 6; (dose: 400.0 mg/kg/injection, schedule: Q04DX003 (ip), vehicle: gum acacia) 0 of 6.

Regarding `CCCCCCN(CCCCCC)C1=C(Cl)C(=O)c2ccccc2C1=O`, the survivor count reads like this: (dose: 100.0 mg/kg/injection, schedule: Q01DX001 (ip), vehicle: carboxymethylcellulose (CMC)) 0 of 4; (dose: 200.0 mg/kg/injection, schedule: Q01DX001 (ip), vehicle: carboxymethylcellulose (CMC)) 0 of 4; (dose: 400.0 mg/kg/injection, schedule: Q01DX001 (ip), vehicle: carboxymethylcellulose (CMC)) 0 of 4.

For the origin of these results see PubChem BioAssay AID248 (DTP/NCI, 2004).
